PubChem BioAssay AID504764 | Drosophila RNAi Screening Center, 2011

Purpose: 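Genes whose knock-down alters Notch-dependent transcription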 (primary screen)
Cell system: Drosophila Kc167 cells
Reagent: long dsRNA against Drosophila genes
Duration: about 5 days (4 days dsRNA, then 24 h after transfection)
Challenge: transfection of constitutively active membrane-tethered Notch lacking the extracellular domain, read 24 h later
Read-out: 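Firefly luciferase from an E(spl)m3 reporter with active Notch, plus control-promoter and uninduced reporter wells for normalisation; unnormalised counts, duplicate wells a and b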
Reading the numbers: induced reporter light, run 1, well a and induced reporter light, run 1, well b: higher = more light from the Notch target reporter with active Notch; control promoter light, run 1, well a and control promoter light, run 1, well b: higher = more light from the viral control promoter (cell number, transfection, viability); uninduced reporter light, run 1, well a: higher = more light from the Notch target reporter without active Notch
Active means: 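Hit if the duplicate-averaged log2 ratio of induced to control-promoter light gives a plate-wise z beyond ±2, or induced to uninduced beyond ±1.8; weak-control or discordant-duplicate wells dropped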
Meaning of the calls: active = modifier hit (raised or lowered Notch signal); inactive = not a hit
In all, the deposit lists about 22,000 reagents; below is an unselected part of those with a known target gene and a result. Of all reagents, 403 (1.9%) are marked active. 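Unnormalised raw counts per well; ratio z-scores behind the hit calls and whether each hit raises or lowers signal are not deposited.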 A plus sign joins genes that one reagent is predicted to hit. The record does not give: the amount of reagent.

The opening 5 entries, to show the layout:
| target gene | dsRNA | induced reporter light, run 1, well a | induced reporter light, run 1, well b | control promoter light, run 1, well a | control promoter light, run 1, well b | uninduced reporter light, run 1, well a | outcome |
| --- | --- | --- | --- | --- | --- | --- | --- |
| Sgs5bis | DRSC16263 | 2.08e5 | 1.94e5 | 2.13e5 | 2.23e5 | 17580 | inactive |
| Pisd (Phosphatidylserine decarboxylase) | DRSC15935 | 1.55e5 | 1.76e5 | 1.77e5 | 2.28e5 | 12635 | inactive |
| fd59A (forkhead domain 59A) | DRSC04685 | 2.10e5 | 2.47e5 | 2.06e5 | 2.02e5 | 16320 | inactive |
| CG9391 | DRSC11858 | 1.18e5 | 1.14e5 | 1.11e5 | 80010 | 8255 | inactive |
| nclb (no child left behind) | DRSC07009 | 1.42e5 | 1.04e5 | 1.51e5 | 1.54e5 | 10830 | inactive |

Results, from the first entry:
| target gene | dsRNA | induced reporter light, run 1, well a | induced reporter light, run 1, well b | control promoter light, run 1, well a | control promoter light, run 1, well b | uninduced reporter light, run 1, well a | outcome |
| --- | --- | --- | --- | --- | --- | --- | --- |
| Sgs5bis | DRSC16263 | 2.08e5 | 1.94e5 | 2.13e5 | 2.23e5 | 17580 | inactive |
| Pisd (Phosphatidylserine decarboxylase) | DRSC15935 | 1.55e5 | 1.76e5 | 1.77e5 | 2.28e5 | 12635 | inactive |
| fd59A (forkhead domain 59A) | DRSC04685 | 2.10e5 | 2.47e5 | 2.06e5 | 2.02e5 | 16320 | inactive |
| CG9391 | DRSC11858 | 1.18e5 | 1.14e5 | 1.11e5 | 80010 | 8255 | inactive |
| nclb (no child left behind) | DRSC07009 | 1.42e5 | 1.04e5 | 1.51e5 | 1.54e5 | 10830 | inactive |
| LanA (Laminin A) | DRSC11207 | 1.24e5 | 1.16e5 | 58150 | 13940 | 9810 | active |
| CG5707 | DRSC08573 | 1.26e5 | 1.36e5 | 1.99e5 | 2.37e5 | 10485 | inactive |
| SrpRalpha (Signal recognition particle receptor alpha) | DRSC20251 | 1.99e5 | 1.55e5 | 2.23e5 | 2.48e5 | 13445 | inactive |
| NtR | DRSC04628 | 58795 | 37230 | 34645 | 49490 | 1595 | inactive |
| CG8584 | DRSC07217 | 1.83e5 | 1.37e5 | 1.96e5 | 2.07e5 | 13415 | inactive |
| RnrS (Ribonucleoside diphosphate reductase small subunit) | DRSC07533 | 55555 | 49450 | 43905 | 46810 | 7050 | active |
| Rsod (Related to Sod) | DRSC15424 | 91300 | 1.01e5 | 1.77e5 | 1.47e5 | 10682 | inactive |
| Ir94f (Ionotropic receptor 94f) | DRSC13621 | 1.79e5 | 2.16e5 | 2.25e5 | 2.27e5 | 15435 | inactive |
| CG16741 | DRSC06622 | 1.24e5 | 1.04e5 | 1.58e5 | 1.81e5 | 10495 | inactive |
| CG13926 | DRSC08395 | 1.69e5 | 1.12e5 | 2.09e5 | 1.73e5 | 8300 | inactive |
| prd (paired) | DRSC03597 | 1.88e5 | 1.74e5 | 1.73e5 | 2.32e5 | 14045 | inactive |
| Coa7 (Cytochrome c oxidase assembly factor 7) | DRSC20967 | 91050 | 1.00e5 | 1.16e5 | 1.20e5 | 9655 | inactive |
| spg (sponge) | DRSC14373 | 1.22e5 | 1.14e5 | 1.84e5 | 1.44e5 | 10445 | inactive |
| spg (sponge) | DRSC14881 | 1.21e5 | 1.09e5 | 1.58e5 | 1.56e5 | 12205 | inactive |
| Ccn | DRSC09504 | 1.74e5 | 1.52e5 | 2.94e5 | 2.47e5 | 17025 | inactive |
| Ccn | DRSC09506 | 1.30e5 | 1.19e5 | 1.33e5 | 1.58e5 | 13130 | inactive |
| Ccn | DRSC10062 | 1.08e5 | 92370 | 74450 | 85095 | 8040 | inactive |
| Ccn | DRSC10063 | 2.11e5 | 1.57e5 | 2.28e5 | 2.00e5 | 11405 | inactive |
| CG34159 | DRSC02885 | 15560 | 19180 | 13525 | 13155 | 4395 | inactive |
| Alg10 (ALG10 alpha-1,2-glucosyltransferase) | DRSC10892 | 1.57e5 | 1.41e5 | 1.56e5 | 1.43e5 | 8445 | inactive |
| Scgalpha (Sarcoglycan alpha) | DRSC03076 | 1.74e5 | 1.94e5 | 1.09e5 | 1.64e5 | 25500 | inactive |
| CG4596 | DRSC15608 | 61625 | 92250 | 80115 | 76080 | 3975 | inactive |
| Rcd2 (Reduction in Cnn dots 2) | DRSC11756 | 72880 | 53180 | 46960 | 50225 | 4745 | inactive |
| Karl | DRSC19883 | 1.95e5 | 1.87e5 | 2.32e5 | 1.99e5 | 12025 | inactive |
| CG42557 + CG42558 | DRSC13963 | 1.39e5 | 1.47e5 | 1.32e5 | 1.43e5 | 10728 | inactive |
| CG42557 + CG42558 | DRSC16329 | 1.53e5 | 1.74e5 | 1.86e5 | 1.66e5 | 9285 | inactive |
| CG3640 | DRSC04399 | 2.41e5 | 2.00e5 | 2.08e5 | 1.51e5 | 16338 | inactive |
| CG15739 | DRSC19705 | 1.10e5 | 1.06e5 | 1.93e5 | 1.82e5 | 7535 | inactive |
| cry (cryptochrome) | DRSC16928 | 1.49e5 | 1.52e5 | 1.78e5 | 1.79e5 | 10685 | inactive |
| epsilonTry (epsilonTrypsin) | DRSC07611 | 1.36e5 | 1.36e5 | 1.86e5 | 1.59e5 | 12775 | inactive |
| dgt3 (dim gamma-tubulin 3) | DRSC04349 | 76210 | 82215 | 61180 | 67595 | 6715 | inactive |
| ng3 (new glue 3) | DRSC18804 | 93850 | 82985 | 1.18e5 | 1.63e5 | 6350 | inactive |
| CG42262 (retired record) | DRSC17628 | 77700 | 72435 | 79060 | 78695 | 4450 | inactive |
| CG42262 (retired record) | DRSC17974 | 1.15e5 | 99040 | 1.55e5 | 1.60e5 | 8750 | inactive |
| Cyp6g1 (Cytochrome P450 6g1) | DRSC07386 | 1.97e5 | 1.47e5 | 1.71e5 | 1.42e5 | 12660 | inactive |
| Slc25A46a | DRSC20125 | 1.80e5 | 1.52e5 | 2.05e5 | 1.94e5 | 10985 | inactive |
| CG17601 | DRSC20639 | 72200 | 80320 | 84645 | 1.06e5 | 8380 | inactive |
| Mst98Cb (Male-specific RNA 98Cb) | DRSC16750 | 1.85e5 | 1.73e5 | 2.51e5 | 2.28e5 | 14705 | inactive |
| CG13457 | DRSC10004 | 1.94e5 | 1.35e5 | 2.07e5 | 1.59e5 | 10018 | inactive |
| CG33252 | DRSC19162 | 85425 | 1.01e5 | 93545 | 79130 | 6955 | inactive |
| sloth2 + sloth1 | DRSC17922 | 1.36e5 | 1.54e5 | 2.55e5 | 2.70e5 | 11085 | inactive |
| sloth2 + sloth1 | DRSC17923 | 1.35e5 | 1.40e5 | 2.41e5 | 2.34e5 | 11335 | inactive |
| CR16735 (pseudo) | DRSC15144 | 75260 | 67390 | 74005 | 53595 | 4982 | inactive |
| CG16786 | DRSC04281 | 1.76e5 | 1.42e5 | 1.33e5 | 1.39e5 | 9328 | active |
| RpL26 (Ribosomal protein L26) | DRSC10726 | 21730 | 28150 | 24040 | 20070 | 1278 | inactive |
| Pp2B-14D (Protein phosphatase 2B at 14D) | DRSC20270 | 58185 | 39770 | 54545 | 43465 | 8770 | inactive |
| CG40006 | DRSC03787 | 76075 | 72760 | 78830 | 92210 | 8225 | inactive |
| CG40006 | DRSC03809 | 62905 | 79465 | 83450 | 83915 | 7400 | inactive |
| CG40006 | DRSC03814 | 64415 | 55560 | 67635 | 93755 | 7100 | active |
| CG40006 | DRSC03817 | 67810 | 71400 | 82380 | 78650 | 9010 | active |
| CstF64 (Cleavage stimulation factor 64 kD subunit) | DRSC16616 | 1.32e5 | 1.61e5 | 1.40e5 | 1.53e5 | 10085 | inactive |
| E2f1 (E2F transcription factor 1) | DRSC16655 | 87915 | 76840 | 1.03e5 | 89330 | 5315 | inactive |
| CG32365 | DRSC10040 | 2.05e5 | 2.41e5 | 2.98e5 | 2.27e5 | 13880 | inactive |
| CG32365 | DRSC10041 | 8740 | 8845 | 11330 | 9375 | 4415 | inactive |
| CG32365 | DRSC10977 | 21595 | 19675 | 10565 | 12585 | 16100 | inactive |
| RhoU | DRSC17635 | 69970 | 83160 | 77660 | 53595 | 4338 | inactive |
| RhoU | DRSC17803 | 1.18e5 | 1.38e5 | 2.32e5 | 2.46e5 | 9245 | inactive |
| RhoU | DRSC17804 | 1.38e5 | 1.16e5 | 1.69e5 | 1.61e5 | 7578 | inactive |
| RhoU | DRSC22396 | – | – | – | – | – | inactive |
